Data: patent publication US20240209029A1 (The University of Hong Kong, priority 2021, published 2024)

Test: general procedure: Fmoc solid-phase peptide synthesis; 2-chlorotrityl chloride resin
Details: for step yield: coupling step

Substance: hAdn-WM65
- step yield: 34%

Substance: hAdn-WM77
- step yield (over 2 steps (deFmoc and Ser/Thr ligation)): 30.8%

Substance: hAdn-WM77-b
- isolated yield (whole synthesis, based on the resin loading): 8.9%
